Values quoted from earlier work as cited in patent publication US4973465A, “Microcrystals comprising an active substance having an affinity for phospholipids, and at least one phospholipid, process of preparation” (priority 1986, dated 1990).
At least one structure is not confirmed: it was looked up by name or label, or the drawing left a doubt.

Conditions: cited from earlier work

CC1C(=O)OC2C(O)C34C5CC(C(C)(C)C)C36C(OC(=O)C6O)OC4(C(=O)O5)C12O (stereo not shown) [ginkgolide B]
solubility in water: ≤ 100000 mg/mL
